Results from PMC12000434 (2025).

Target: TAU (human (endogenous in SH-SY5Y))
Experiment: proximity ligation; in situ PLA (Duolink) on fixed SH-SY5Y cells overexpressing FLAG-NDP52^WT or FLAG-NDP52^GE, DMSO (basal) or 100 nM OkA for 1.5 h; rabbit anti-FLAG and mouse anti-TAU

binding	Binder
binds	FLAG-NDP52^WT (protein, UniProt Q13137 1-446) MEETIKDPPTSAVLLDHCHFSQVIFNSVEKFYIPGGDVTCHYTFTQHFIPRRKDWIGIFRVGWKTTREYYTFMWVTLPIDLNNKSAKQQEVQFKAYYLPKDDEYYQFCYVDEDGVVRGASIPFQFRPENEEDILVVTTQGEVEEIEQHNKELCKENQELKDSCISLQKQNSDMQAELQKKQEELETLQSINKKLELKVKEQKDYWETELLQLKEQNQKMSSENEKMGIRVDQLQAQLSTQEKEMEKLVQGDQDKTEQLEQLKKENDHLFLSLTEQRKDQKKLEQTVEQMKQNETTAMKKQQELMDENFDLSKRLSENEIICNALQRQKERLEGENDLLKRENSRLLSYMGLDFNSLPYQVPTSDEGGARQNPGLAYGNPYSGIQESSSPSPLSIKKCPICKADDICDHTLEQQQMQPLCFNCPICDKIFPATEKQIFEDHVFCHSL
binds	FLAG-NDP52^GE (protein, UniProt Q13137 1-446) MEETIKDPPTSAVLLDHCHFSQVIFNSVEKFYIPGGDVTCHYTFTQHFIPRRKDWIGIFRVGWKTTREYYTFMWVTLPIDLNNKSAKQQEVQFKAYYLPKDDEYYQFCYVDEDGVVRGASIPFQFRPENEEDILVVTTQEEVEEIEQHNKELCKENQELKDSCISLQKQNSDMQAELQKKQEELETLQSINKKLELKVKEQKDYWETELLQLKEQNQKMSSENEKMGIRVDQLQAQLSTQEKEMEKLVQGDQDKTEQLEQLKKENDHLFLSLTEQRKDQKKLEQTVEQMKQNETTAMKKQQELMDENFDLSKRLSENEIICNALQRQKERLEGENDLLKRENSRLLSYMGLDFNSLPYQVPTSDEGGARQNPGLAYGNPYSGIQESSSPSPLSIKKCPICKADDICDHTLEQQQMQPLCFNCPICDKIFPATEKQIFEDHVFCHSL

Results are given in words; binding and its absence hold for the method and conditions named. In cells and extracts the contact can be indirect. A result given as binding can be weak or reduced; the word gives no strength. Tags and fused reporters may be left off the sequences shown.
